Reference: PubChem BioAssay AID652272 (Drosophila RNAi Screening Center, 2013)
The deposit covers about 21,000 reagents; this is an unselected part of those that have a named target and a result. Over the whole deposit, 503 (2.4%) are marked active. 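Raw plate light values, not normalised; calls rest on replicate z-scores that were not deposited; hits include reporter decreases as well as increases.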 Reagents against one gene are numbered here. A plus sign joins genes that one reagent is predicted to hit. Not given: the amount of reagent, the time to read-out.

Test: 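Finding fly genes that regulate Hedgehog signal transduction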 (primary screen)
System: Drosophila clone 8 (Cl8) cells
Reagents: long dsRNA against Drosophila genes
Measurement: 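Firefly light from a Hedgehog-responsive ptc promoter reporter and Renilla reference light, both read on a plate reader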
Reading the numbers: firefly Hh reporter signal: higher = more ptc reporter light; Renilla reference signal: higher = more Renilla control light
Active means: 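Called a hit if the two-replicate mean z-score lies below -2 or above +3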
Meaning of the calls: active = hit: reporter lowered or raised; inactive = not a hit

Against Eig71Ed, the entry reads firefly Hh reporter signal, replicate 1 = 1.26e5; Renilla reference signal, replicate 1 = 6372; Renilla reference signal, replicate 2 = 4023; inactive. After knock-down of Sply, the screen gave firefly Hh reporter signal, replicate 1 = 6.38e5; firefly Hh reporter signal, replicate 2 = 80187; Renilla reference signal, replicate 1 = 3323; Renilla reference signal, replicate 2 = 3323; inactive. For tex, the values are firefly Hh reporter signal, replicate 1 = 60880; firefly Hh reporter signal, replicate 2 = 76995; Renilla reference signal, replicate 1 = 1882; Renilla reference signal, replicate 2 = 2313; inactive. TwdlG gave firefly Hh reporter signal, replicate 1 = 1.12e5; firefly Hh reporter signal, replicate 2 = 1.54e5; Renilla reference signal, replicate 1 = 4157; Renilla reference signal, replicate 2 = 29442; inactive. After knock-down of CG5746 the results were firefly Hh reporter signal, replicate 1 = 1.49e5; firefly Hh reporter signal, replicate 2 = 97858; Renilla reference signal, replicate 1 = 5677; Renilla reference signal, replicate 2 = 3552; inactive. CG10384 #1 gave firefly Hh reporter signal, replicate 1 = 1.15e5; firefly Hh reporter signal, replicate 2 = 3.38e5; Renilla reference signal, replicate 1 = 3168; Renilla reference signal, replicate 2 = 15509; inactive.

CG10384 #2 gave firefly Hh reporter signal, replicate 1 = 63210; firefly Hh reporter signal, replicate 2 = 45702; Renilla reference signal, replicate 1 = 876; Renilla reference signal, replicate 2 = 4486; inactive. Against CG11127, the entry reads firefly Hh reporter signal, replicate 1 = 1.33e5; firefly Hh reporter signal, replicate 2 = 90128; Renilla reference signal, replicate 1 = 4592; Renilla reference signal, replicate 2 = 2668; inactive.

Ordered by “firefly Hh reporter signal, replicate 1” (ascending): 2 of the entries above.
tex: firefly Hh reporter signal, replicate 1 = 60880; firefly Hh reporter signal, replicate 2 = 76995; Renilla reference signal, replicate 1 = 1882; Renilla reference signal, replicate 2 = 2313; call = inactive
Sply: firefly Hh reporter signal, replicate 1 = 6.38e5; firefly Hh reporter signal, replicate 2 = 80187; Renilla reference signal, replicate 1 = 3323; Renilla reference signal, replicate 2 = 3323; call = inactive

More reagents follow.
For NtR, the values are firefly Hh reporter signal, replicate 1 = 1.13e5; firefly Hh reporter signal, replicate 2 = 60529; Renilla reference signal, replicate 1 = 2674; Renilla reference signal, replicate 2 = 5398; inactive. For CG9003 the deposit lists firefly Hh reporter signal, replicate 1 = 1.03e5; firefly Hh reporter signal, replicate 2 = 67149; Renilla reference signal, replicate 1 = 2544; Renilla reference signal, replicate 2 = 4706; inactive. After knock-down of mRpS30 the results were firefly Hh reporter signal, replicate 1 = 91203; firefly Hh reporter signal, replicate 2 = 55145; Renilla reference signal, replicate 1 = 2176; Renilla reference signal, replicate 2 = 1378; inactive. With knock-down of CG13747, the record shows firefly Hh reporter signal, replicate 1 = 76368; firefly Hh reporter signal, replicate 2 = 58979; Renilla reference signal, replicate 1 = 2122; Renilla reference signal, replicate 2 = 4918; inactive. Silencing of CR44003 + CG44002 #1 came out at: firefly Hh reporter signal, replicate 1 = 74080; firefly Hh reporter signal, replicate 2 = 64336; Renilla reference signal, replicate 1 = 3456; Renilla reference signal, replicate 2 = 3139; inactive. With knock-down of CR44003 + CG44002 #2, the screen gave firefly Hh reporter signal, replicate 1 = 1.02e5; firefly Hh reporter signal, replicate 2 = 52616; Renilla reference signal, replicate 1 = 2619; Renilla reference signal, replicate 2 = 5146; inactive.
